Source: PubChem BioAssay AID1259405 (NCATS, 2018)

- Screen: 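Knock-downs that lift recombinant protein yield in hamster ovary cells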 (primary screen)
- Cell system: Chinese hamster CHO-K1 ovary cells with stable secreted eGFP expression
- Knock-down reagent: single siRNA against mouse genes, 0.8 pmol siRNA per well (2 µl of 400 nM stock)
- Time to read-out: 3 days
- Detection: 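Per-well intracellular GFP measured by laser scanning cytometry, plus viability from ATP luminescence, each relative to plate median of non-targeting control wells, in %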
- Reading the numbers: GFP, % of control: higher = more GFP per well, higher productivity; viability (ATP), % of control: higher = more viable cells (more ATP)
- Rule for the call: 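a knock-down is called active if GFP reaches 120% or more of non-targeting control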
This is a random part of about 50,000 reagents tested. In the full data, about 4,000 (8%) were called active. 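Mouse siRNA library applied to hamster cells; one well for each siRNA.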 Entries without a mark were called inactive. No sequences are given here.

gene symbol | PubChem SID | GFP, % of control | viability (ATP), % of control
Tiaf2 | SID363556232 | 68.9 | 54.6
Tiaf2 | SID363586682 | 112 | 111
Tiaf2 | SID363588790 | 57.1 | 92.5
Sec16a | SID363546816 | 43.8 | 76.7
Sec16a | SID363548572 | 69.3 | 79.9
Sec16a | SID363560750 | 84.3 | 91.9
Trappc6b | SID363556549 | 65.3 | 75.1
Trappc6b | SID363586999 | 74.5 | 52.2
Trappc6b | SID363589107 | 91.7 | 83
Rcn2 | SID363582425 | 109 | 129
Rcn2 | SID363584185 | 100 | 67.5
Serpinb3d | SID363573104 | 55.4 | 86.4
Serpinb3d | SID363577680 | 55 | 82.6
Serpinb3d | SID363581200 | 52.5 | 80.2

Look-ups from above.
Serpinb3d [SID363581200], viability (ATP), % of control = 80.2
Serpinb3d [SID363577680], viability (ATP), % of control → 82.6
Entry for Tiaf2 [SID363586682] in “GFP, % of control”: 112

Additional records:
gene symbol | PubChem SID | GFP, % of control | viability (ATP), % of control
Cox16 | SID363543622 | 82.4 | 82.1
Cox16 | SID363553115 | 75.9 | 75.8
Cox16 | SID363558963 | 69.7 | 89.1
Il1a | SID363582436 | 168 (active) | 125
Il1a | SID363584196 | 94.7 | 78.7
Spa17 | SID363554899 | 80 | 63.1
Spa17 | SID363568346 | 76.6 | 70.5
Spa17 | SID363586405 | 72.8 | 78.3
Fn3k | SID363581804 | 60.7 | 85.2
Fn3k | SID363589298 | 122 (active) | 94.5
Stk35 | SID363571077 | 60.7 | 56.6
Stk35 | SID363571429 | 63.4 | 57.8
Stk35 | SID363571781 | 94.9 | 75.8
Eme1 | SID363552335 | 45.3 | 45.2
Eme1 | SID363585471 | 88.7 | 87.5
Eme1 | SID363585822 | 107 | 116
Cxcl15 | SID363541422 | 63.6 | 77.8
Cxcl15 | SID363556049 | 60.3 | 72.1
Cxcl15 | SID363566338 | 28 | 50.7
Fbxl3 | SID363539983 | 117 | 99
Fbxl3 | SID363561284 | 84.3 | 73.8
Fbxl3 | SID363564320 | 136 (active) | 73.5
